This experiment deals with Mycobacterium tuberculosis LigD, wildtype (M. tuberculosis) (UniProt P9WNV3). Description: SEC-MALS; 50 uM protein; 50 mM HEPES pH 8.0, 1 mM EDTA, 200 mM NaCl; Superdex 200 Increase 10/300 GL; both purified.

Protein sequences, listed by entry. Tags and fused reporters are not part of them.
UniProt P9WNV3: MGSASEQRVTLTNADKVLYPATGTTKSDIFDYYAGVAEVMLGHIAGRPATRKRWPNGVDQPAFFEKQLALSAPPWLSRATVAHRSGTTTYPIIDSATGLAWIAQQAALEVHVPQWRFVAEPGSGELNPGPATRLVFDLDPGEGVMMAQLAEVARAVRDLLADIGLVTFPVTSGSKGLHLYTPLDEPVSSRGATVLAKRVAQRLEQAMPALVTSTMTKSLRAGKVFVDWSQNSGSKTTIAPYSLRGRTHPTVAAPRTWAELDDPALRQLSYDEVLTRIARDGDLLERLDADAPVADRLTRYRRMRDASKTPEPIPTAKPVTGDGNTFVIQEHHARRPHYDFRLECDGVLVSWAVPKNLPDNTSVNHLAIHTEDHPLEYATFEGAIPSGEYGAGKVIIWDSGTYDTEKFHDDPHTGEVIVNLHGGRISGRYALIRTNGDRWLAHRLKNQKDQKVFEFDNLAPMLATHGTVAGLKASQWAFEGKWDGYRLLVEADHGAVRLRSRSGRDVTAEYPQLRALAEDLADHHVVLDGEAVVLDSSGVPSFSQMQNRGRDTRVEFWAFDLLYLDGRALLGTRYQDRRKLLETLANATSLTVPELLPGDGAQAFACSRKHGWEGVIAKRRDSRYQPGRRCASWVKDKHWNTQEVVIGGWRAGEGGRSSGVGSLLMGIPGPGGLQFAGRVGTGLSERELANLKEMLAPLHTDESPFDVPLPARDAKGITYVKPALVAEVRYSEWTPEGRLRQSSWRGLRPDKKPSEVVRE

In PMC9638933 one finds binding data, which are given here for 1 substance.

No constants are given. Whether binding was seen depends on the method and setting.

For the substance “Mycobacterium tuberculosis LigD, wildtype (from UniProt P9WNV3 1-759) (enzyme)”, the binding result is given as “no binding (tested: 50 uM)”.
